Laboratory results: publication PMC5520498
These are yes or no findings as the source states them, for the method shown. Binding seen in cells or lysates may run through a third protein. Some entries that bind do so weakly or less than the wild type.

Protein sequences, listed by entry. Tags and fused reporters are not part of them.
UniProt Q13263: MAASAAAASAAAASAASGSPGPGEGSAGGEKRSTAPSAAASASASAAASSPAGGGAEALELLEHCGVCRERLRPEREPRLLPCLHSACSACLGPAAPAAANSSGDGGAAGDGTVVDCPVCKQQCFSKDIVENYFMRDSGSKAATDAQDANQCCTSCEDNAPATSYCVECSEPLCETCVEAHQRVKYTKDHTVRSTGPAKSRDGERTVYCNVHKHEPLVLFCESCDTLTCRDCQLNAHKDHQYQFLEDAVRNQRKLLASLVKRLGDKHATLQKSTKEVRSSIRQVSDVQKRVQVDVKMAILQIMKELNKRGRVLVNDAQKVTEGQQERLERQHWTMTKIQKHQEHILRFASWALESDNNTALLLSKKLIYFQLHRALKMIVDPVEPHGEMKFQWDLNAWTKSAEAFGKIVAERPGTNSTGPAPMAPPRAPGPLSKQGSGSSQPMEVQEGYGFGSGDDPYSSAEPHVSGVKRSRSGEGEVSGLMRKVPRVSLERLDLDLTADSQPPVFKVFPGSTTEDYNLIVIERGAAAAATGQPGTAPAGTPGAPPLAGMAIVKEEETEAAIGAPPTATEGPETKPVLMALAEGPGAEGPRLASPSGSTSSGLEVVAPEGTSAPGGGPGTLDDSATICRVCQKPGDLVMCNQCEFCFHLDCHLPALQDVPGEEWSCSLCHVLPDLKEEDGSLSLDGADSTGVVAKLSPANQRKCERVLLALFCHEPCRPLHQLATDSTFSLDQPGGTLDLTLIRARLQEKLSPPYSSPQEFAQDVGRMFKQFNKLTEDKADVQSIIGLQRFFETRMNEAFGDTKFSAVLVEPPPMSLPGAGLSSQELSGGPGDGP

Target: TRIM28 (tripartite motif-containing protein 28), endogenous in HepG2 cells (human (endogenous in HepG2)) (UniProt Q13263)
Test: co-IP; co-immunoprecipitation of endogenous proteins from HepG2 cell lysate (reciprocal for FBP1 and TRIM28; anti-TRIM28 antibody for MAGE-A3 and MAGE-C2); RIPA lysate, Protein G agarose, western blot

- binding: binds
B1: MAGE-C2, endogenous in HepG2 cells (protein, UniProt Q9UBF1 1-373)
chain: MPPVPGVPFRNVDNDSPTSVELEDWVDAQHPTDEEEEEASSASSTLYLVFSPSSFSTSSSLILGGPEEEEVPSGVIPNLTESIPSSPPQGPPQGPSQSPLSSCCSSFSWSSFSEESSSQKGEDTGTCQGLPDSESSFTYTLDEKVAELVEFLLLKYEAEEPVTEAEMLMIVIKYKDYFPVILKRAREFMELLFGLALIEVGPDHFCVFANTVGLTDEGSDDEGMPENSLLIIILSVIFIKGNCASEEVIWEVLNAVGVYAGREHFVYGEPRELLTKVWVQGHYLEYREVPHSSPPYYEFLWGPRAHSESIKKKVLEFLAKLNNTVPSSFPSWYKDALKDVEERVQATIDTADDATVMASESLSVMSSNVSFSE
